{"source": "PubChem BioAssay AID1259425 (University of Nebraska Medical Center, 2018)", "test": "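Seek colon cancer weak points whose silencing resembles KSR1 loss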 (primary screen)", "cell system": "HCT116 human colon cancer cells", "knock-down reagent": "siRNA pool against human genes, 50 nM siRNA", "measurement": "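After 50 nM siRNA pool, branched-DNA assay measures six marker transcripts per well, minus blank, normalised to the geometric mean of two housekeeping transcripts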", "reading the numbers": "BNIP3L mRNA: higher = more BNIP3L transcript after knockdown", "note": "The deposit covers about 14,000 reagents; below is a random part of them. Further read-outs or replicates are left out here. The record does not give: the time to read-out."}
{"target gene": "INO80D (GeneID 54891)", "BNIP3L mRNA, set 1": 0.0418}
{"target gene": "P4HB (GeneID 5034)", "BNIP3L mRNA, set 1": 0.0785}
{"target gene": "TRMU (GeneID 55687)", "BNIP3L mRNA, set 1": 0.0663}
{"target gene": "POU4F2 (GeneID 5458)", "BNIP3L mRNA, set 1": 0.0953}
{"target gene": "SLC45A1 (GeneID 50651)", "BNIP3L mRNA, set 1": 0.0677}
{"target gene": "STX4 (GeneID 6810)", "BNIP3L mRNA, set 1": 0.15}

2 consecutive reagents from above, quoted:
{"target gene": "TRMU (GeneID 55687)", "BNIP3L mRNA, set 1": 0.0663}
{"target gene": "POU4F2 (GeneID 5458)", "BNIP3L mRNA, set 1": 0.0953}

Further entries follow:
{"target gene": "KNTC1 (GeneID 9735)", "BNIP3L mRNA, set 1": 0.0566}
{"target gene": "ZNF84 (GeneID 7637)", "BNIP3L mRNA, set 1": 0.121}
{"target gene": "SERPINA10 (GeneID 51156)", "BNIP3L mRNA, set 1": 0.177}
{"target gene": "L1TD1 (GeneID 54596)", "BNIP3L mRNA, set 1": 0.0879}
{"target gene": "PCDH11X (GeneID 27328)", "BNIP3L mRNA, set 1": 0.101}
{"target gene": "B9D1 (GeneID 27077)", "BNIP3L mRNA, set 1": 0.0745}
